Results: patent publication US20140336202A1
These are yes or no findings as the source states them, for the method shown. Binding seen in cells or lysates may run through a third protein. Some entries that bind do so weakly or less than the wild type.

Sequences of proteins named here, by UniProt entry; tags and fusion partners are left off. A change or cut given only in a name is not applied to a line headed by its entry.
UniProt Q00987: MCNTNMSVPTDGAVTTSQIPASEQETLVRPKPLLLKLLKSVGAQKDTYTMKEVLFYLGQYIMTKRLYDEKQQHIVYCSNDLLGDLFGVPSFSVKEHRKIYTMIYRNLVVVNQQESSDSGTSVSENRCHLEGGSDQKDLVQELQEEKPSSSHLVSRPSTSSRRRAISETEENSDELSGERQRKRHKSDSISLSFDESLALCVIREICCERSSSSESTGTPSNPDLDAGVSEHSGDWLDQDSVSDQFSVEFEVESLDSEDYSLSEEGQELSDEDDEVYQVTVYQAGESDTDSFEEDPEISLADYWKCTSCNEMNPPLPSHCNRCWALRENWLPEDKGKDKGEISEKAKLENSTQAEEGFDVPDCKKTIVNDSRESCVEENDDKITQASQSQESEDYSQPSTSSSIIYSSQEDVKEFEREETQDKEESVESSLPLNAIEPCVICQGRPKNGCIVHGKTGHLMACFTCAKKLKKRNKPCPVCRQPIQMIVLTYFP
UniProt Q7Z6Z7: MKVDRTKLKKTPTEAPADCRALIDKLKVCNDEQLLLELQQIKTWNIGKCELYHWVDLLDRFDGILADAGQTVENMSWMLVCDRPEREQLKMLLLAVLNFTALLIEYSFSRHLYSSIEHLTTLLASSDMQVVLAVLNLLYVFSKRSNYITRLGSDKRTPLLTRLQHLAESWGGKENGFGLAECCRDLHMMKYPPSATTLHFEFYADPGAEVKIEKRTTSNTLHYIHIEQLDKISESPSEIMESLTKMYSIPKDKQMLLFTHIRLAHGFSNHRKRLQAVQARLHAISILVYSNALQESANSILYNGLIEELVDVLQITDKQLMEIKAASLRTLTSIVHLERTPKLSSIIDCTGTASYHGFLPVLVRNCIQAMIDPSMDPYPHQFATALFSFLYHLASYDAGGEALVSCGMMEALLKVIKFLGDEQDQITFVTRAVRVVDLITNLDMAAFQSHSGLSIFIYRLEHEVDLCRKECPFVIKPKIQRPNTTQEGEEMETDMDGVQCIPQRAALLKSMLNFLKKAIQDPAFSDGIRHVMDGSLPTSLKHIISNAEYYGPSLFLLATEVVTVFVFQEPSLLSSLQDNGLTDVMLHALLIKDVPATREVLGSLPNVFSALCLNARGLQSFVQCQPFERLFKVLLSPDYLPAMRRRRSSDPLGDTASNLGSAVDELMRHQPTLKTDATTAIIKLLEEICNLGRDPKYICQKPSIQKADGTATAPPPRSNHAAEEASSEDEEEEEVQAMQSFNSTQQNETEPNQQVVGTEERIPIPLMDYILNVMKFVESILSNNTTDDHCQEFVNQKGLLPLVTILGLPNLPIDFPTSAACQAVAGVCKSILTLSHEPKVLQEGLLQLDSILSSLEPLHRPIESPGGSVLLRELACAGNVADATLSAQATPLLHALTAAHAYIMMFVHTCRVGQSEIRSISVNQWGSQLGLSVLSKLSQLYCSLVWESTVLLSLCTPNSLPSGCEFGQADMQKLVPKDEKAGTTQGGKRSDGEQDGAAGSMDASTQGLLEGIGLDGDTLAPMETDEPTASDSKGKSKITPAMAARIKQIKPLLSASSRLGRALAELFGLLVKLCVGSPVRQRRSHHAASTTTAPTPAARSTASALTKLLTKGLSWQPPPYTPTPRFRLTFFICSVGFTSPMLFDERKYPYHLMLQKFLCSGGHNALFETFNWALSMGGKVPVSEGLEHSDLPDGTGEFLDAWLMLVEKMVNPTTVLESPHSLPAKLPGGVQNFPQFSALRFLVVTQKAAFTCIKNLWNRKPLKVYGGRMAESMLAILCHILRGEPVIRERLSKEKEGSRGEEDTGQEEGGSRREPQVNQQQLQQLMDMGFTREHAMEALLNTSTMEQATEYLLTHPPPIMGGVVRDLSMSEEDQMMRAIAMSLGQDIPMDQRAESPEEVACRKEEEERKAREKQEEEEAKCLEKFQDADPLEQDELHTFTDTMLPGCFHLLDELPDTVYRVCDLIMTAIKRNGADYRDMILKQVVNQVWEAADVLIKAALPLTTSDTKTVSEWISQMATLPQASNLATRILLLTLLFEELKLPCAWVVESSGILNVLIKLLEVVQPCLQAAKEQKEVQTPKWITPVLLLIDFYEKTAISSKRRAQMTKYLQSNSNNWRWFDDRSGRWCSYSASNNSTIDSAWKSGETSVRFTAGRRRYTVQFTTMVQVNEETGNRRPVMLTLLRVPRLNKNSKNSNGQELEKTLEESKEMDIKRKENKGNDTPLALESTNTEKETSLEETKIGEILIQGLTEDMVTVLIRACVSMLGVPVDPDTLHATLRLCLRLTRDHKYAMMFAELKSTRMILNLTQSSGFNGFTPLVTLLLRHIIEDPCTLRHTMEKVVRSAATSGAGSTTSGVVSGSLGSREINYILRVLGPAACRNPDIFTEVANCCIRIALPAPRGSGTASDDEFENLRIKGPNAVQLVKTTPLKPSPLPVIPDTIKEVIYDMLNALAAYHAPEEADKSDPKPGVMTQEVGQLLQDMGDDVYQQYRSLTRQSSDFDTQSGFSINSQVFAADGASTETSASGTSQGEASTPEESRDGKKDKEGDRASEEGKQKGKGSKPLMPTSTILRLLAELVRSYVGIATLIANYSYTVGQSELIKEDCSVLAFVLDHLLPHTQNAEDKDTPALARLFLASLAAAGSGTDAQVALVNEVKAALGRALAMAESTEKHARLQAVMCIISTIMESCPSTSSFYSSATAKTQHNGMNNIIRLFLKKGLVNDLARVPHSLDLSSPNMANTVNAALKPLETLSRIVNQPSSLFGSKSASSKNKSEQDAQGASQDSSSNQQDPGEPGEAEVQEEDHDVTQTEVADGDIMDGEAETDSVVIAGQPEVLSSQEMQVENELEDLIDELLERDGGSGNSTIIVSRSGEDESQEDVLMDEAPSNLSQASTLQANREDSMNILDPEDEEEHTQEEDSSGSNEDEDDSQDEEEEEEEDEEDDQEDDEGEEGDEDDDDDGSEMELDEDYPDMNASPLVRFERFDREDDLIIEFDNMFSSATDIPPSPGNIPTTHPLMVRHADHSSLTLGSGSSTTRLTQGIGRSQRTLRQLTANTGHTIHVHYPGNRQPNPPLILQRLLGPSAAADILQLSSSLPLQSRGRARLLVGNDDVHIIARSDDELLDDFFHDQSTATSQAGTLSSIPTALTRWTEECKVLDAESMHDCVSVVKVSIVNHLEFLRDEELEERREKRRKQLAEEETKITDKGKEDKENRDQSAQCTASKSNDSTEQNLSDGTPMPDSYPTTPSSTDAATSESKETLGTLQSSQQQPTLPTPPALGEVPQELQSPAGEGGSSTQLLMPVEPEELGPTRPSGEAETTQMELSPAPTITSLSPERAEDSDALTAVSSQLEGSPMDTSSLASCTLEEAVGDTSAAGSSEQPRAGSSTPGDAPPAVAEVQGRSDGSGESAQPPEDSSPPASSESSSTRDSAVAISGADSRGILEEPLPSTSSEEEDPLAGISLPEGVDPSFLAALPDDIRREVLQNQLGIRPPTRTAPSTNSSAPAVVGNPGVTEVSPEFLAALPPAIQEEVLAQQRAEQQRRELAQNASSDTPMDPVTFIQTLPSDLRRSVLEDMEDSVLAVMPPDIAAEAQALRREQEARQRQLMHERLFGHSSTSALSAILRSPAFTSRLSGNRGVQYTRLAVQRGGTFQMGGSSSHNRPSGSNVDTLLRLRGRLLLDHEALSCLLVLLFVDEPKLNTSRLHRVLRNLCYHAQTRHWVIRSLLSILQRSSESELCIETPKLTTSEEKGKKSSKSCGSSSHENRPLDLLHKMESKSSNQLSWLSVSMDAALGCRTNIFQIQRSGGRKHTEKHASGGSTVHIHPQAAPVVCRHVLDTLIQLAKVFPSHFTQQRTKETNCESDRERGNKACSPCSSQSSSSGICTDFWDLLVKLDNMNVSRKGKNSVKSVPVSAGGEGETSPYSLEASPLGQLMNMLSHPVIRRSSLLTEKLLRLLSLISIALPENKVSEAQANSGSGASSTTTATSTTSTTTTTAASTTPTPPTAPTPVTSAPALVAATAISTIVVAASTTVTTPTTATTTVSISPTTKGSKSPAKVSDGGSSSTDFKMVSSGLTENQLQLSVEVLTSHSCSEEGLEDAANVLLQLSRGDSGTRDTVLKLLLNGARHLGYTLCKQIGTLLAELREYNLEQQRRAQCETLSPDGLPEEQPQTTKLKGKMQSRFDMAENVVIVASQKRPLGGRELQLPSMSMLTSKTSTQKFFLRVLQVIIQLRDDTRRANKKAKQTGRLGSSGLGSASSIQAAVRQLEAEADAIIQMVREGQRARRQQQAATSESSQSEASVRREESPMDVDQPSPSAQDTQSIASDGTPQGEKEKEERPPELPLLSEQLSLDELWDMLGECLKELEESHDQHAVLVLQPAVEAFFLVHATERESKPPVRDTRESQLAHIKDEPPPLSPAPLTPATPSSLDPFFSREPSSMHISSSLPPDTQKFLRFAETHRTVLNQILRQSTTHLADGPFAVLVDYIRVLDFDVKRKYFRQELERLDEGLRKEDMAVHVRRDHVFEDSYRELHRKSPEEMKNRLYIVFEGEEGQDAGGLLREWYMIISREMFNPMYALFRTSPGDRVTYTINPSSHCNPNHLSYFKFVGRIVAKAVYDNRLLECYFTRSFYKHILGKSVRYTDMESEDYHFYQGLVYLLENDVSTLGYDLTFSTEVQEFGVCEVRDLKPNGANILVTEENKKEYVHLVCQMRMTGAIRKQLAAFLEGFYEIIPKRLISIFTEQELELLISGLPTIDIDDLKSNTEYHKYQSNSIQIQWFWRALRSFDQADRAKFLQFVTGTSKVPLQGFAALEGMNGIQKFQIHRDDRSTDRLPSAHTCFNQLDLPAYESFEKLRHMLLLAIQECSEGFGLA

Legend:
[1] = molecular target: MDM2 (endogenous) (human) (UniProt Q00987); experiment: co-immunoprecipitation with anti-HA from transfected BT474 cells, immunoblot for MDM2
PP5 (endogenous) (human) = molecular target: T1, PP5 (endogenous) (human) (UniProt P53041); experiment: co-immunoprecipitation with anti-HA from transfected BT474 cells, immunoblot for PP5
T1 sequence (looked up): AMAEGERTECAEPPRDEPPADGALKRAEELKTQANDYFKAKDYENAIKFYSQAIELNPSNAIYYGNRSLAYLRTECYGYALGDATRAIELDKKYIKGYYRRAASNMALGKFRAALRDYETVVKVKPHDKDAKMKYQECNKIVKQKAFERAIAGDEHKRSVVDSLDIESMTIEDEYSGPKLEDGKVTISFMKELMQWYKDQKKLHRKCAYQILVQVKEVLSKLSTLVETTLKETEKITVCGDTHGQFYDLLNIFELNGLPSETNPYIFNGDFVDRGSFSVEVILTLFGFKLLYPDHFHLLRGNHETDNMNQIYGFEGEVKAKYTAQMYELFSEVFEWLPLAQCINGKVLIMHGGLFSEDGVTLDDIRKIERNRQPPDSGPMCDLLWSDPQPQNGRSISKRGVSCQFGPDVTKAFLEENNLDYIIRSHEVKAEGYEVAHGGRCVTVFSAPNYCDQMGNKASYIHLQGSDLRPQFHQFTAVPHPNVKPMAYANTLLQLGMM

Row | binding [1] | binding (PP5 (endogenous) (human)) | Substance
1 | binds |  | HA-Huwe1^1-2474 (from UniProt Q7Z6Z7 1-2474) (enzyme)
2 | binds | binds | HA-Huwe1 wild type (full-length) (from UniProt Q7Z6Z7 1-4374) (enzyme)
